How the values were obtained:
[1] = physchem; conditions: octanol/water, pH 7.4
[2] = octanol/water, pH 2

Molecule CCn1cc(C(=O)O)c(=O)c2cc(F)c(N3CCN(C)CC3)cc21 [PEFLOXACIN] has a logD [1] of 0.37 and a logD [2] of -1.58.

From ChEMBL document CHEMBL1141145, “A chiral benzoquinolizine-2-carboxylic acid arginine salt active against vancomycin-resistant Staphylococcus aureus” (J Med Chem, 2005)
